Experimental data published in the supplement of paper PMC12823440, “Inhibitors supercharge kinase turnover through native proteolytic circuits” (Nature, 2025).
The other results are listed elsewhere or left out. The calls rarely recur for the same compound in another form.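 Kinases were expressed as nanoluciferase fusions in K562 cells and luminescence was read every 4 h between 2 and 18 h as percent of control, DMSO set to 100% and a positive control to 0%. A time point counts as decreased when the signal drops significantly (2 sigma). The hit call is the authors' own, does not follow from the count of time points alone, and its rule is not shown.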

Amino acid sequences for entries named in this document (tags omitted).
UniProt P49137, whole entry, looked up: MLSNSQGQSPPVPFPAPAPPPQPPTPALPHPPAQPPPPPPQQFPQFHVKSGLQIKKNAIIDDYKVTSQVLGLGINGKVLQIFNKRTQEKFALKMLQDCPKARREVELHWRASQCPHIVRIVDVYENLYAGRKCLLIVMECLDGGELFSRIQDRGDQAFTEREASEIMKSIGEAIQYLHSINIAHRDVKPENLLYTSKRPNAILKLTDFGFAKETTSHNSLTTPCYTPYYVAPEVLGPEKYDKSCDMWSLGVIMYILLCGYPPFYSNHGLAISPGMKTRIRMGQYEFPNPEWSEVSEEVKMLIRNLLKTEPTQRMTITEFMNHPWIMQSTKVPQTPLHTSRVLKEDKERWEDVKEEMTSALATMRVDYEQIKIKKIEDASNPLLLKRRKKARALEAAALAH

Target: MAPKAPK2 (UniProt P49137)
Experiment: number of time points (of 5) at which kinase-Nluc abundance scored as decreased, DMSO-normalised (count); higher = more persistent destabilization
Details: K562; 2-18 h

Row | Compound | number of time points
1 | CN1C(=O)[C@@H](NC(=O)c2n[nH]c(Cc3ccccc3)n2)COc2ccccc21 (10 µM) | 0
2 | O=C1NC(=Nc2c(Cl)cccc2Cl)S/C1=C\c1ccc2nccnc2c1 (2.5 µM) | 0
3 | Cc1cccc(-c2[nH]c(C(C)(C)C)nc2-c2ccc3nccnc3c2)n1 (10 µM) | 0
4 | O=C(Nc1cccc(C(F)(F)F)c1)c1cccc2cc(Oc3cc(CO)ncn3)ccc12 (10 µM) | 0
5 | CNc1cc(Nc2cccn(-c3ccccn3)c2=O)nn2c(C(=O)N[C@@H]3C[C@@H]3F)cnc12 (2.5 µM) | 0
6 | Cc1ccn2c(C(=O)C(=O)c3ccccc3)c(-c3ccccc3)nc2c1 (10 µM) | 0
7 | COc1cc(N2CCOCC2)ccc1Nc1ncc(Cl)c(Nc2ccccc2NS(C)(=O)=O)n1 (2.5 µM) | 0
8 | O=C(NC1CCOCC1)c1ccc(-c2cc(-c3c[nH]nc3-c3ccccn3)ccn2)cc1 (10 µM) | 0
9 | O=C1NC(=O)/C(=C/c2ccc3nccc(-c4ccncc4)c3c2)S1 (10 µM) | 0
10 | Cc1ncc(NC(=O)NC2c3ccccc3-c3ccccc32)c(-c2ccccc2)n1 (10 µM) | 0
11 | CC(C)C[C@@H](C(=O)Nc1ccn(C[C@@H](O)CO)n1)N1CC(Oc2ccccc2Cl)=CC1=O [Dorzagliatin] (10 µM) | 0
12 | O=C1O[C@H]([C@@H](O)CO)C(O)=C1OP(=O)(O)O [2-Phospho-L-ascorbic acid (trisodium)] (10 µM) | 0
13 | C[C@@H]1CC(=O)c2c(ccc3c2C(=O)c2cccc(O)c2C3=O)C1 [Ochromycinone] (10 µM) | 0
